The target of assay [1] is Kif5b, the heavy chain of kinesin-1 (endogenous) (mouse (endogenous in mouse brain)) (UniProt Q61768). The assay is described as follows: co-IP.
Assay [2] concerns the target T1, GST-tagged Kif5b tail fragment (900-935 aa), 910-912 NMA to SSS (UniProt Q61768).
T1 sequence: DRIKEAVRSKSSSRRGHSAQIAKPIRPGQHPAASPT
The assay is described as follows: pull-down.

Protein sequences, listed by entry. Tags and fused reporters are not part of them. Residues count along the entry.
UniProt Q01097, residues 27-1482: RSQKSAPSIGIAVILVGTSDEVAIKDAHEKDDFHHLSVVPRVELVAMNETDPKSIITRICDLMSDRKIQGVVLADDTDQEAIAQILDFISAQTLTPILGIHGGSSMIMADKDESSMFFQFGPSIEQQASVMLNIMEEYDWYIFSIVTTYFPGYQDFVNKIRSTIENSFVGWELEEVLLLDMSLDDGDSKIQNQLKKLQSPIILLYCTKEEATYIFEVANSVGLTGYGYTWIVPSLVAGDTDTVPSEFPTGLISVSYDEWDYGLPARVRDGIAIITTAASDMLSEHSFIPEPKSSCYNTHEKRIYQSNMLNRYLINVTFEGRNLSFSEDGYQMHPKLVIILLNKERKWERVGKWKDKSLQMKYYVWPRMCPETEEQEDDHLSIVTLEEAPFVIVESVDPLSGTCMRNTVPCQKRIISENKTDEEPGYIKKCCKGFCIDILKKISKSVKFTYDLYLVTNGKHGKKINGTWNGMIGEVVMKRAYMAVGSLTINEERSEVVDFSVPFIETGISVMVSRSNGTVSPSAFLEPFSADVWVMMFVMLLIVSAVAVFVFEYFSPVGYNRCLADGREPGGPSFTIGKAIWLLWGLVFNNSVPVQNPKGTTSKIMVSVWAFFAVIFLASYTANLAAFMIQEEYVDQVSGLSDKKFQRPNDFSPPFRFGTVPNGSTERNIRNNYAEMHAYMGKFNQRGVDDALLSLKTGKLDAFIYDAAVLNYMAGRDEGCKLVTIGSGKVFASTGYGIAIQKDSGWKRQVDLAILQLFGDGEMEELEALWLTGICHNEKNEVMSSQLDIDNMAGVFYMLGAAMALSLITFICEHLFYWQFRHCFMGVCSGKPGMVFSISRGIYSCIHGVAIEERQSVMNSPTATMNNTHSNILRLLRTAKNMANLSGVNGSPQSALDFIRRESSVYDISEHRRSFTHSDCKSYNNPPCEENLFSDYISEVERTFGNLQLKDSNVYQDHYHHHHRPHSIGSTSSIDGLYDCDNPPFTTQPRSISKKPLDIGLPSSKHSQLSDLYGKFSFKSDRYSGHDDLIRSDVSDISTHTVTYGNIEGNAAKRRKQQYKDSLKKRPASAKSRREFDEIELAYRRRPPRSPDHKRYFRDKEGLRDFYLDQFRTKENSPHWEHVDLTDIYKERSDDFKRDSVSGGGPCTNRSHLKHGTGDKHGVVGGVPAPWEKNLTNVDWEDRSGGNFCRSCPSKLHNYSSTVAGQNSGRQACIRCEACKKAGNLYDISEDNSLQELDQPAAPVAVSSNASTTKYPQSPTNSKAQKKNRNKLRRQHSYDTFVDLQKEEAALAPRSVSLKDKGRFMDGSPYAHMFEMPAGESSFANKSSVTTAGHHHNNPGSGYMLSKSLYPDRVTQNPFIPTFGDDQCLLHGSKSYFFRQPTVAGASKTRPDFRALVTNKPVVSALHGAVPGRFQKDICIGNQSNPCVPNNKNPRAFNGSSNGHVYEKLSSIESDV

Assay [3] has as its target GST-tagged Kif5b tail fragment (900-935 aa), 907-909 RSK to SSS (UniProt Q61768). The assay is described as follows: pull-down.
The target of assay [4] is GST-tagged Kif5b tail fragment (900-935 aa), 910-912 NMA to AAA (UniProt Q61768). The assay is described as follows: pull-down.
Assay [5] has as its target GST-tagged Kif5b tail fragment (900-935 aa), 907-909 RSK to AAA (UniProt Q61768). The assay is described as follows: pull-down.
Assay [6] deals with T2, GST-tagged Kif5b tail fragment (900-935 aa), 913-915 RRG to SSS (UniProt Q61768).
T2 sequence: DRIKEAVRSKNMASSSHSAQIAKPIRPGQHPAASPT
The assay is described as follows: pull-down.

For assay [7], the target named is GST-tagged Kif5b tail fragment (900-935 aa) (UniProt Q61768). The experiment in a line: pull-down.
In assay [8] the target is T3, GST-tagged Kif5b tail fragment (900-935 aa), 913-915 RRG to AAA (UniProt Q61768).
T3 sequence: T2 sequence with S14A, S15A, S16A
The assay is described as follows: pull-down.

Assay [9] deals with Kif5b, the heavy chain of kinesin-1 (endogenous) (mouse (endogenous in mouse brain)) (UniProt Q61768). The assay is described as follows: co-IP. This is another data set of the same source.
The target of assay [10] is GluN1 NMDAR subunit (endogenous) (mouse (endogenous in mouse brain)) (UniProt P35438). The assay is described as follows: co-IP.

Positions count from the first letter of the chain named. Like-named read-outs stand apart in the source and are kept apart here. Results are given in words; binding and its absence hold for the method and conditions named. In cells and extracts the contact can be indirect. Some binding calls cover weakened binding; strength is not graded here. For some assays here: Tags and fused reporters may be left off the sequences shown.

With “GluN2B NMDAR subunit (endogenous) (from UniProt Q01097 27-1482) (receptor)”, the binding result is “binds” in assay [1]; “binds” in [2]; “no binding” in assay [3]; “binds” in [4]; “no binding” in assay [5]; “no binding” in assay [6]. The binding result is “binds” in [7], “no binding” in [8] and “binds” in [9].
Regarding “Kif5b, the heavy chain of kinesin-1 (endogenous) (from UniProt Q61768 1-963)”, the binding entry in [10] is reported as “binds”.
With “GluN2A NMDAR subunit (endogenous) (from UniProt P35436 23-1464) (receptor)”, the binding result in [9] is given as “binds”.

For the origin of these results see doi:10.1101/440800.
